Reference: PubChem BioAssay AID1224828 (NIAID, 2016)
The deposit covers about 17,000 reagents; shown is a part drawn at random. 762 of them (4.5%) were called active. 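Active calls include both raised and lowered p65 entry, mostly lowered; wells with fewer than 50 cells lack a z-score.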 Raw values are not corrected between plates. Reagent sequences are not shown.

Assay: 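Knock-downs that increase or decrease LPS-induced p65 nuclear translocation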 (primary screen)
Cell system: mouse RAW264.7 G9 macrophage reporter cells (GFP-p65, Tnf promoter-mCherry)
Reagent: siRNA pool against mouse genes, 100 nM
Duration: 2 days siRNA transfection, then 40 min LPS before fixation
Treatment: LPS (Salmonella minnesota R595) at 10 ng/ml
Detection: 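Microscopy ratio of nuclear to perinuclear-ring GFP-p65 signal, scaled to the plate median; gene score is the average of two replicate robust z-scores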
Reading the numbers: p65 translocation robust z-score: higher = more nuclear NF-kappaB p65 after LPS than the plate median; nuclear/cytoplasmic p65 ratio: higher = more nuclear NF-kappaB p65
Rule for the call: 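Active if robust z is above 3.3 (negative regulators) or below -1.56, the Tlr4 control median (positive regulators); activity score 50 or more; control wells not called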
Meaning of the calls: active = hit (p65 shift raised or lowered); inactive = no clear change

4930512M02Rik (RIKEN cDNA 4930512M02 gene) | nuclear/cytoplasmic p65 ratio, rep 1: 1.28; nuclear/cytoplasmic p65 ratio, rep 2: 1.33; low cell count flag: fewer than 50 cells per well; well left out of scoring; Call: inactive
Ilk (integrin linked kinase) | p65 translocation robust z-score: -0.19; nuclear/cytoplasmic p65 ratio, rep 1: 1.6; nuclear/cytoplasmic p65 ratio, rep 2: 1.4; low cell count flag: enough cells to score; Call: inactive
Or5p67 (olfactory receptor family 5 subfamily P member 67) | p65 translocation robust z-score: 0.97; nuclear/cytoplasmic p65 ratio, rep 1: 1.35; nuclear/cytoplasmic p65 ratio, rep 2: 1.38; low cell count flag: enough cells to score; Call: inactive
Phf11d (PHD finger protein 11D) | p65 translocation robust z-score: -1.52; nuclear/cytoplasmic p65 ratio, rep 1: 1.22; nuclear/cytoplasmic p65 ratio, rep 2: 1.67; low cell count flag: enough cells to score; Call: inactive
Pgghg (protein glucosylgalactosylhydroxylysine glucosidase) | p65 translocation robust z-score: 0.2; nuclear/cytoplasmic p65 ratio, rep 1: 1.69; nuclear/cytoplasmic p65 ratio, rep 2: 1.6; low cell count flag: enough cells to score; Call: inactive
Syne2 (spectrin repeat containing, nuclear envelope 2) | p65 translocation robust z-score: -2.61; nuclear/cytoplasmic p65 ratio, rep 1: 1.08; nuclear/cytoplasmic p65 ratio, rep 2: 1.23; low cell count flag: enough cells to score; Call: active
Akap4 (A kinase anchor protein 4) | p65 translocation robust z-score: 1.51; nuclear/cytoplasmic p65 ratio, rep 1: 1.99; nuclear/cytoplasmic p65 ratio, rep 2: 1.53; low cell count flag: enough cells to score; Call: inactive
Scp2d1 (SCP2 sterol-binding domain containing 1) | p65 translocation robust z-score: 0.51; nuclear/cytoplasmic p65 ratio, rep 1: 1.46; nuclear/cytoplasmic p65 ratio, rep 2: 1.56; low cell count flag: enough cells to score; Call: inactive
Tfpi (tissue factor pathway inhibitor) | p65 translocation robust z-score: -0.57; nuclear/cytoplasmic p65 ratio, rep 1: 1.47; nuclear/cytoplasmic p65 ratio, rep 2: 1.4; low cell count flag: enough cells to score; Call: inactive
Slc22a13 | p65 translocation robust z-score: -0.54; nuclear/cytoplasmic p65 ratio, rep 1: 1.28; nuclear/cytoplasmic p65 ratio, rep 2: 1.24; low cell count flag: enough cells to score; Call: inactive
Or4k5 (olfactory receptor family 4 subfamily K member 5) | p65 translocation robust z-score: 1.99; nuclear/cytoplasmic p65 ratio, rep 1: 1.5; nuclear/cytoplasmic p65 ratio, rep 2: 1.5; low cell count flag: enough cells to score; Call: inactive
Naip6 (NLR family, apoptosis inhibitory protein 6) | p65 translocation robust z-score: 0.97; nuclear/cytoplasmic p65 ratio, rep 1: 1.71; nuclear/cytoplasmic p65 ratio, rep 2: 1.8; low cell count flag: enough cells to score; Call: inactive
Tada2a (transcriptional adaptor 2A) | p65 translocation robust z-score: 0.33; nuclear/cytoplasmic p65 ratio, rep 1: 1.53; nuclear/cytoplasmic p65 ratio, rep 2: 1.6; low cell count flag: enough cells to score; Call: inactive
Tlr1 (toll-like receptor 1) | p65 translocation robust z-score: 1.61; nuclear/cytoplasmic p65 ratio, rep 1: 2.14; nuclear/cytoplasmic p65 ratio, rep 2: 1.44; low cell count flag: enough cells to score; Call: inactive
Nkx6-1 (NK6 homeobox 1) | p65 translocation robust z-score: -2.35; nuclear/cytoplasmic p65 ratio, rep 1: 1.24; nuclear/cytoplasmic p65 ratio, rep 2: 1.1; low cell count flag: enough cells to score; Call: active
1700010I14Rik (RIKEN cDNA 1700010I14 gene) | p65 translocation robust z-score: -0.49; nuclear/cytoplasmic p65 ratio, rep 1: 1.27; nuclear/cytoplasmic p65 ratio, rep 2: 1.42; low cell count flag: enough cells to score; Call: inactive
Liph (lipase H) | nuclear/cytoplasmic p65 ratio, rep 1: 1.44; nuclear/cytoplasmic p65 ratio, rep 2: 1.35; low cell count flag: fewer than 50 cells per well; well left out of scoring; Call: inactive
Nudt2 (nudix hydrolase 2) | p65 translocation robust z-score: 0.87; nuclear/cytoplasmic p65 ratio, rep 1: 1.58; nuclear/cytoplasmic p65 ratio, rep 2: 1.48; low cell count flag: enough cells to score; Call: inactive
Phka1 (phosphorylase kinase alpha 1) | p65 translocation robust z-score: 0.77; nuclear/cytoplasmic p65 ratio, rep 1: 1.92; nuclear/cytoplasmic p65 ratio, rep 2: 1.39; low cell count flag: enough cells to score; Call: inactive
Or56a3b (olfactory receptor family 56 subfamily A member 3B) | p65 translocation robust z-score: -0.29; nuclear/cytoplasmic p65 ratio, rep 1: 1.37; nuclear/cytoplasmic p65 ratio, rep 2: 1.26; low cell count flag: enough cells to score; Call: inactive
Wfdc12 (WAP four-disulfide core domain 12) | nuclear/cytoplasmic p65 ratio, rep 1: 1.51; nuclear/cytoplasmic p65 ratio, rep 2: 1.21; low cell count flag: fewer than 50 cells per well; well left out of scoring; Call: inactive

Records listed so far whose target name begins with O or o:
Or5p67 (olfactory receptor family 5 subfamily P member 67) | p65 translocation robust z-score: 0.97; nuclear/cytoplasmic p65 ratio, rep 1: 1.35; nuclear/cytoplasmic p65 ratio, rep 2: 1.38; low cell count flag: enough cells to score; Call: inactive
Or4k5 (olfactory receptor family 4 subfamily K member 5) | p65 translocation robust z-score: 1.99; nuclear/cytoplasmic p65 ratio, rep 1: 1.5; nuclear/cytoplasmic p65 ratio, rep 2: 1.5; low cell count flag: enough cells to score; Call: inactive
Or56a3b (olfactory receptor family 56 subfamily A member 3B) | p65 translocation robust z-score: -0.29; nuclear/cytoplasmic p65 ratio, rep 1: 1.37; nuclear/cytoplasmic p65 ratio, rep 2: 1.26; low cell count flag: enough cells to score; Call: inactive
